PMC3856054

What was measured:
SEPT12-GFP (human) = target: T1, SEPT12-GFP (human) (UniProt Q8IYM1); assay: co-IP; testicular lysates from SEPTIN12-transgenic mice; IP with anti-GFP antibody, IgG as control; blot with anti-GFP, anti-α-tubulin and anti-β-tubulin
T1 sequence: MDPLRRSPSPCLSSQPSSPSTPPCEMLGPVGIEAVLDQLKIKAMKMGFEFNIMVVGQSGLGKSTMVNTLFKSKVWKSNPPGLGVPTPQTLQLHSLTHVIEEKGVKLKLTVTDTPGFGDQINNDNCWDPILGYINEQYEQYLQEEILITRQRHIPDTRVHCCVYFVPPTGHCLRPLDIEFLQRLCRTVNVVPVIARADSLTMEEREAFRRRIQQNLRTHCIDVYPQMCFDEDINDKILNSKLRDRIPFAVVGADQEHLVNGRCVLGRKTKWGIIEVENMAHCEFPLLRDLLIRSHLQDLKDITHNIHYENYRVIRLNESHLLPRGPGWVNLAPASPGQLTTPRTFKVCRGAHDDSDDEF

SEPT12-FLAG (human) = target: T2, SEPT12-FLAG (human) (UniProt Q8IYM1); assay: co-IP; lysates of NTERA-2 d.D1 cells transfected with pFLAG-SEPTIN12 (4 mg protein in 1 mL, pre-cleared with protein A/G beads); IP overnight with anti-FLAG, anti-α-tubulin, anti-β-tubulin or control IgG; washed twice with 1x PBS; Western blot
T2 sequence: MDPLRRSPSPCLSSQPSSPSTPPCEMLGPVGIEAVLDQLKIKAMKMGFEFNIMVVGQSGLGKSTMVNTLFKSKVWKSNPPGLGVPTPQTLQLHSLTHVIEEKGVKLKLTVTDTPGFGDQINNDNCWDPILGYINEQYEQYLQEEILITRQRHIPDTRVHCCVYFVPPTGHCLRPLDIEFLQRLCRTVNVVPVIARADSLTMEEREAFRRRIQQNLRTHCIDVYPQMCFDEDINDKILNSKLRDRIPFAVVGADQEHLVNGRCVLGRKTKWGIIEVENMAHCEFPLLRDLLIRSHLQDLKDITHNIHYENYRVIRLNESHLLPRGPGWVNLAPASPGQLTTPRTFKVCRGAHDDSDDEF

[1] = target: T3, SEPT12-FLAG (in 293T cells) (human) (UniProt Q8IYM1); assay: co-IP; same co-IP in 293T cells (Figure S1)
T3 sequence: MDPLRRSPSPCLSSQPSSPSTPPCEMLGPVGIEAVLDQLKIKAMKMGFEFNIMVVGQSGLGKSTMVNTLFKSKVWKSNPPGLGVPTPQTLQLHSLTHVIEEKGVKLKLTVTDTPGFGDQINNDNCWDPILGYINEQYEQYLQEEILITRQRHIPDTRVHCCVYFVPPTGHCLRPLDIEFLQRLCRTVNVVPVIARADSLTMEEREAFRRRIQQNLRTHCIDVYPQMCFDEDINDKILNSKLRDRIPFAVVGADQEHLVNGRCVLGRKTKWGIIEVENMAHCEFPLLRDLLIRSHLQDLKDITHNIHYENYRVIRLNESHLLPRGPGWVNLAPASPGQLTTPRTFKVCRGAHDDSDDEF

[2] = target: α-tubulin (human (endogenous in NTERA-2 d.D1)); assay: co-IP; lysates of NTERA-2 d.D1 cells transfected with pFLAG-SEPTIN12 (4 mg protein in 1 mL, pre-cleared with protein A/G beads); IP overnight with anti-FLAG, anti-α-tubulin, anti-β-tubulin or control IgG; washed twice with 1x PBS; Western blot
[3] = target: β-tubulin (human (endogenous in NTERA-2 d.D1)); assay: as above
[4] = target: β-tubulin (293T cells) (human (endogenous in 293T)); assay: co-IP; same co-IP in 293T cells (Figure S1)
[5] = target: α-tubulin (293T cells) (human (endogenous in 293T)); assay: co-IP; same co-IP in 293T cells (Figure S1)

Molecule: α-tubulin (mouse testis)
binding (SEPT12-GFP (human)): binds

Molecule: α-tubulin (human (endogenous in NTERA-2 d.D1))
binding (SEPT12-FLAG (human)): binds

Molecule: β-tubulin (human (endogenous in NTERA-2 d.D1))
binding (SEPT12-FLAG (human)): binds

Molecule: β-tubulin (293T cells) (human (endogenous in 293T))
binding [1]: binds

B2: SEPT12-FLAG (in 293T cells) (protein, UniProt Q8IYM1 1-358)
chain: MDPLRRSPSPCLSSQPSSPSTPPCEMLGPVGIEAVLDQLKIKAMKMGFEFNIMVVGQSGLGKSTMVNTLFKSKVWKSNPPGLGVPTPQTLQLHSLTHVIEEKGVKLKLTVTDTPGFGDQINNDNCWDPILGYINEQYEQYLQEEILITRQRHIPDTRVHCCVYFVPPTGHCLRPLDIEFLQRLCRTVNVVPVIARADSLTMEEREAFRRRIQQNLRTHCIDVYPQMCFDEDINDKILNSKLRDRIPFAVVGADQEHLVNGRCVLGRKTKWGIIEVENMAHCEFPLLRDLLIRSHLQDLKDITHNIHYENYRVIRLNESHLLPRGPGWVNLAPASPGQLTTPRTFKVCRGAHDDSDDEF
binding [4]: binds | binding [5]: binds

Other lines, results leading:

binding (SEPT12-GFP (human)): binds
Molecule: β-tubulin (mouse testis)

binding [1]: binds
Molecule: α-tubulin (293T cells) (human (endogenous in 293T))

binding [2]: binds | binding [3]: binds
B1: SEPT12-FLAG (protein, UniProt Q8IYM1 1-358)
chain: MDPLRRSPSPCLSSQPSSPSTPPCEMLGPVGIEAVLDQLKIKAMKMGFEFNIMVVGQSGLGKSTMVNTLFKSKVWKSNPPGLGVPTPQTLQLHSLTHVIEEKGVKLKLTVTDTPGFGDQINNDNCWDPILGYINEQYEQYLQEEILITRQRHIPDTRVHCCVYFVPPTGHCLRPLDIEFLQRLCRTVNVVPVIARADSLTMEEREAFRRRIQQNLRTHCIDVYPQMCFDEDINDKILNSKLRDRIPFAVVGADQEHLVNGRCVLGRKTKWGIIEVENMAHCEFPLLRDLLIRSHLQDLKDITHNIHYENYRVIRLNESHLLPRGPGWVNLAPASPGQLTTPRTFKVCRGAHDDSDDEF

Results are given in words; binding and its absence hold for the method and conditions named. Binding seen in cells or lysates may run through a third protein. Binding can be weak; no strength is given. Sequences can lack the tags named with a protein. Each block holds one molecule with its values, some of them ahead of it.
